Measured values reported in paper PMC10266075.
Results are given in words; binding and its absence hold for the method and conditions named. In cells and extracts the contact can be indirect. Some results given as binding are weak or reduced against the parent protein; the word gives no strength.

Sequences of proteins named here, by UniProt entry; tags and fusion partners are left off.
UniProt P08047: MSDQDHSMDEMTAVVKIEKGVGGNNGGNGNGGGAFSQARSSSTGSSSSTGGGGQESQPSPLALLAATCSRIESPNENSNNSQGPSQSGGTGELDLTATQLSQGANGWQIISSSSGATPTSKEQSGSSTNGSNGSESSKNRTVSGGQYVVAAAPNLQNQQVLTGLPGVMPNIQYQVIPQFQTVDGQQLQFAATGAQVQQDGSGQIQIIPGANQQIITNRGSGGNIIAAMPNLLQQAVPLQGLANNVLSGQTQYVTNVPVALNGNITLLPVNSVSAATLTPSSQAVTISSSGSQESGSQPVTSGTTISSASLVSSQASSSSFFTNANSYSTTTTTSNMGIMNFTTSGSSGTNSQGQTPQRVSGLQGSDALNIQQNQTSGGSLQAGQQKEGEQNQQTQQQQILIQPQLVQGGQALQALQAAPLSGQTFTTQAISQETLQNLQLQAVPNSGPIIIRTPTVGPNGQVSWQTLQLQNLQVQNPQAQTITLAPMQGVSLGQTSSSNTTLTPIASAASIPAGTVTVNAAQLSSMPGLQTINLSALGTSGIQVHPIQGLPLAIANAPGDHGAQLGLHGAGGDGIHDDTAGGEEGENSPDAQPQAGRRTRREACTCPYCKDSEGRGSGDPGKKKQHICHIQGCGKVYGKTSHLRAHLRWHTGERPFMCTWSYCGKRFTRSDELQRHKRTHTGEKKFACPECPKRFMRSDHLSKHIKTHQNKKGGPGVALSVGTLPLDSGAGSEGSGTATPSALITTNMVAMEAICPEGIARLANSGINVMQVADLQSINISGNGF
UniProt Q16665: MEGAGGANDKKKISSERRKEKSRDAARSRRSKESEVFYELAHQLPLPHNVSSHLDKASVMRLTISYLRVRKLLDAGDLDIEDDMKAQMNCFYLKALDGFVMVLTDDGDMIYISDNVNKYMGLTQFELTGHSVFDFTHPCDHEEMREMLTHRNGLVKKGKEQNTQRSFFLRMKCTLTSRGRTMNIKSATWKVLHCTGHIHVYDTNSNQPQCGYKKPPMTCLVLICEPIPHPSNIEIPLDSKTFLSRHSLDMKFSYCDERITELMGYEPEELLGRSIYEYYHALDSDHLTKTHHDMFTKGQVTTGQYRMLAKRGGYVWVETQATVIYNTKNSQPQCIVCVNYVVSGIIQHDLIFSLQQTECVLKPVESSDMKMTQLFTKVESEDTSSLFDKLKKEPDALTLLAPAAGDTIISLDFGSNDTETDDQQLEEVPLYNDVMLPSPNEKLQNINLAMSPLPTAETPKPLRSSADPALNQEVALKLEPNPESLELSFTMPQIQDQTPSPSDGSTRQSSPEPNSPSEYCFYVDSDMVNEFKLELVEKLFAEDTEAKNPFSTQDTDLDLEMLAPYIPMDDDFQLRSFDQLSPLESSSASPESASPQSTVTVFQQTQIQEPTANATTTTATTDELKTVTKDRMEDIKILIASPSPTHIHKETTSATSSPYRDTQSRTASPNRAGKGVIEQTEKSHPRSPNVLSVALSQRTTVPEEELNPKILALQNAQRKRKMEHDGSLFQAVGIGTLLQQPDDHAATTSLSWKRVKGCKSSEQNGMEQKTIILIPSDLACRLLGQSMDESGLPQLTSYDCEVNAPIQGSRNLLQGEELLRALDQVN
UniProt Q9UKV0: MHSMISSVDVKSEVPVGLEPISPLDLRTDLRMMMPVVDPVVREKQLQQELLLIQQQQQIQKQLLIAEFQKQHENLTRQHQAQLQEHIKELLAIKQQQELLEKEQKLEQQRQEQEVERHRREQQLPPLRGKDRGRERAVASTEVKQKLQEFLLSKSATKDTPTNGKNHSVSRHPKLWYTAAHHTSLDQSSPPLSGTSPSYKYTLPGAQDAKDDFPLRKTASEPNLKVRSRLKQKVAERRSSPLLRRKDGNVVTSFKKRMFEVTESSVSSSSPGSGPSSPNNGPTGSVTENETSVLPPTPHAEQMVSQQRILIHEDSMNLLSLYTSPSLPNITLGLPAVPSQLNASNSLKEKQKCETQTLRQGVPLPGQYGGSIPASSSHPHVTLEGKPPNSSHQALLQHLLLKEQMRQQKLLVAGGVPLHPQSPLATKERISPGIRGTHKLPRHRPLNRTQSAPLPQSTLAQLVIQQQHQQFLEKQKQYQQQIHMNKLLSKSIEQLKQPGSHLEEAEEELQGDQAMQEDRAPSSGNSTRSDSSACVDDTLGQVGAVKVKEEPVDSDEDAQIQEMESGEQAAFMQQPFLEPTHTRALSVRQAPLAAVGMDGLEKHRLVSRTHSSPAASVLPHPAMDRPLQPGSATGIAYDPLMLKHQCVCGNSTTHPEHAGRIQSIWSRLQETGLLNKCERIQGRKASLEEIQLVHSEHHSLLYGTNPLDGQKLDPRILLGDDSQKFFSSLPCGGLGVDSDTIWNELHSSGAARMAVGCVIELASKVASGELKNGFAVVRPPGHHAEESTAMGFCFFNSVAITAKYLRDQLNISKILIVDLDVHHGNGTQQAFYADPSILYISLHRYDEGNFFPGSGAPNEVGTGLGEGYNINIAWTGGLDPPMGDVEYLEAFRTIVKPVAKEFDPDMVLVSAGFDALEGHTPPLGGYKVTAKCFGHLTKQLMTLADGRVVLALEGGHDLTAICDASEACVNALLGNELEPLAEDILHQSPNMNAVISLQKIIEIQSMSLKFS

Columns and labels:
[1] = biological target: specificity protein 1 (Sp1) (human (endogenous in SH-SY5Y)) (UniProt P08047); assay: co-IP; 1500 ug SH-SY5Y lysate immunoprecipitated overnight at 4 C with 3 ug anti-Sp1 or anti-HIF-1 (normal IgG as negative control), blotted with anti-HDAC9; cells under control conditions or at 72 h after OGD/Rx
[2] = biological target: hypoxia-inducible factor 1 (HIF-1) (human (endogenous in SH-SY5Y)) (UniProt Q16665); assay: as above

Substance: histone deacetylase 9 (HDAC9) (from UniProt Q9UKV0 1-1011)
- binding [1]: binds
- binding [2]: binds
